Assay results published in article PMC7819943, “Rice protein-binding microarrays: a tool to detect cis-acting elements near promoter regions in rice”.
Some of the results follow.

By UniProt entry, the sequences of proteins in these tests, tags left out.
UniProt Q0JBA9, entry or part of it: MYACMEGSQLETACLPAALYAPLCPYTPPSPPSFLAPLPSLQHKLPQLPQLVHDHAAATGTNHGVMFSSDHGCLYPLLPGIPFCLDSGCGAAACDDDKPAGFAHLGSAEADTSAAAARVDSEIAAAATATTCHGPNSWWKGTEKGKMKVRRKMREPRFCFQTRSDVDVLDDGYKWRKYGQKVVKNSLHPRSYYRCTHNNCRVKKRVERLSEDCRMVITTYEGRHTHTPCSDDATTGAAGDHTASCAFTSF

Biological target: OsWRKY34 (Oryza sativa, UniProt Q0JBA9 1-250)
Experiment: protein-binding microarray (RPBM); PBS, 2% BSA, 51.3 ng/ul salmon testes DNA, 50 uM zinc acetate, 200 nM TF, 25 C, 1 h; high values mean tight binding
Details: protein: recombinant; tags: N-terminal polyhistidine and DsRed monomer fusion (pET32a); label: CyDye5-dUTP incorporated in the synthesized complementary strand; 3' TTTTT single-stranded linker to array surface; dsDNA, one strand shown
Method in brief: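 Transcription factors, each fused N-terminally to a polyhistidine tag and DsRed, were expressed in E. coli BL21-CodonPlus and purified on Ni–NTA. A custom Agilent array was made double-stranded by primer extension with Cy5-dUTP and blocked with 2% BSA. It was incubated with 200 nM protein in PBS, 2% BSA, salmon testes DNA and 50 µM zinc acetate at 25 °C for 1 h, then washed. The binding signal is per-feature fluorescence intensity (arbitrary units) read on an Axon 4000B scanner.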

**Q.** How did the binding signal turn out when “AGATTTGTGTGTGTGGTTGCTGTTGCTGTGTGTGAATGGACGGAGTCACCTAGTGCAG” was run?
**A.** The binding signal was 10200 fluorescence intensity (a.u.).

**Q.** For “CACACACACTGCACTTCGGCTCACTCTCTCCACTGTTCTTCGGAGTCACCTAGTGCAG”, which binding signal is on record?
**A.** Its binding signal is 16700 fluorescence intensity (a.u.).

**Q.** Which binding signal does the source give for “AGGGTTACGTGTGGGAGGAGGGAGGTGGATGTGGAAAGATCGGAGTCACCTAGTGCAG” here?
**A.** Its binding signal is 8460 fluorescence intensity (a.u.).

**Q.** “GTGTCTTGTACATGTCTTCGTTTCTTCCTTTCTCATTTCACGGAGTCACCTAGTGCAG” was tested. Which binding signal did it give?
**A.** The binding signal was 10900 fluorescence intensity (a.u.).

**Q.** For “GAGCCTCGTCCCTATCCCACATCACCTTGCTCGATCGCCTCGGAGTCACCTAGTGCAG”, which binding signal is on record?
**A.** The binding signal was 10600 fluorescence intensity (a.u.).

**Q.** Which binding signal does the source give for “GTCATAGCCTCACCGTCCATCATCTTCTTCATCTTCACCCCGGAGTCACCTAGTGCAG” here?
**A.** The binding signal was 12000 fluorescence intensity (a.u.).

**Q.** With “CATTGGAGCGCTGTCTCCTGCTGCTGCACAGTCTACTCTCCGGAGTCACCTAGTGCAG” as the sequence, how does the binding signal read?
**A.** Its binding signal is 8850 fluorescence intensity (a.u.).

**Q.** For “CTACTACTCTGTTCTTCTGGAAGAACACTGGTCTCCTCGCCGGAGTCACCTAGTGCAG”, which binding signal is on record?
**A.** The binding signal was 8380 fluorescence intensity (a.u.).

**Q.** Which binding signal does the source give for “CGCTTGATCTGGGGTGGGGTCGCGAGTGGTGGAGGAGGTGCGGAGTCACCTAGTGCAG” here?
**A.** The binding signal was 16600 fluorescence intensity (a.u.).

**Q.** “CCTCCGCTTCGTCCTGTCCTCCCACCTCGCCGCGCCTGACCGGAGTCACCTAGTGCAG” was tested. Which binding signal did it give?
**A.** Its binding signal is 9980 fluorescence intensity (a.u.).

**Q.** Which binding signal does the source give for “CACACCATATTTGCCTATTCTTTTCCTTTACTTCTGAACTCGGAGTCACCTAGTGCAG” here?
**A.** Its binding signal is 8080 fluorescence intensity (a.u.).

**Q.** Which binding signal does the source give for “CAAGGTGGTACTAAACATGCGCACACCGCTTTCATGGGCCCGGAGTCACCTAGTGCAG” here?
**A.** Its binding signal is 8180 fluorescence intensity (a.u.).

**Q.** For “ACTTGAAAGTACGCCACATTTTCGCGCTGCCCTTAACTTACGGAGTCACCTAGTGCAG”, which binding signal is on record?
**A.** The binding signal was 10700 fluorescence intensity (a.u.).

**Q.** With “GTATTTTGCAATCCTCTGTTTTACACTTATATTTCTATCACGGAGTCACCTAGTGCAG” as the sequence, how does the binding signal read?
**A.** The binding signal was 8030 fluorescence intensity (a.u.).

**Q.** “GATGGTGTGTGTGTGTGGCTGTGTGCACCTAAGAATTTCTCGGAGTCACCTAGTGCAG” was tested. Which binding signal did it give?
**A.** Its binding signal is 10400 fluorescence intensity (a.u.).

**Q.** Which binding signal does the source give for “CCCGGCGTCCTCCTGCTTCCCACCGCATCGTCGCTCGCCGCGGAGTCACCTAGTGCAG” here?
**A.** Its binding signal is 8120 fluorescence intensity (a.u.).

**Q.** With “TCGCCGCTATAAGTATCCCGCTGCTCGTCGCAAAGTCAACCGGAGTCACCTAGTGCAG” as the sequence, how does the binding signal read?
**A.** Its binding signal is 9280 fluorescence intensity (a.u.).

**Q.** How did the binding signal turn out when “TAATTTAGCGGGGTCATTAGGGTGTAGTCAAATCAAGCCACGGAGTCACCTAGTGCAG” was run?
**A.** Its binding signal is 8890 fluorescence intensity (a.u.).

**Q.** How did the binding signal turn out when “CAAATTGTCTACGGTGTGTTCTTTGTTATGCTCTCTTCGTCGGAGTCACCTAGTGCAG” was run?
**A.** The binding signal was 10600 fluorescence intensity (a.u.).

**Q.** Which binding signal does the source give for “TTTTGAGACTAGTTTTCACTGACATGGCACGTTGACTTGGCGGAGTCACCTAGTGCAG” here?
**A.** The binding signal was 10500 fluorescence intensity (a.u.).

**Q.** How did the binding signal turn out when “CGAAAGGTCAAACGTTGGTTAAAAAGTCAACGGCGTTATACGGAGTCACCTAGTGCAG” was run?
**A.** The binding signal was 11500 fluorescence intensity (a.u.).

**Q.** “GTCGTGTCTCCCCATCTTCACTTGTTTTCTCGCCAAATCCCGGAGTCACCTAGTGCAG” was tested. Which binding signal did it give?
**A.** The binding signal was 8270 fluorescence intensity (a.u.).

**Q.** “ACTTTTGTTGATTATAACTCACACTCACACTATATTTTCACGGAGTCACCTAGTGCAG” was tested. Which binding signal did it give?
**A.** Its binding signal is 11100 fluorescence intensity (a.u.).

**Q.** Which binding signal does the source give for “CCGTCGGAGGATTCCTGTCCCTGCCCACGCCGCCGCCTTCCGGAGTCACCTAGTGCAG” here?
**A.** The binding signal was 9130 fluorescence intensity (a.u.).

**Q.** Which binding signal does the source give for “CCCTTCCTGACGACCTACCTGCCGATCGCCACTACAATCTCGGAGTCACCTAGTGCAG” here?
**A.** Its binding signal is 10100 fluorescence intensity (a.u.).

**Q.** Which binding signal does the source give for “CTGATGTCTGAACGACTGTACCCGACGTTGTTGATTGCTTCGGAGTCACCTAGTGCAG” here?
**A.** Its binding signal is 9820 fluorescence intensity (a.u.).

**Q.** For “TCTAGGGTTGTAATCTTGTAATTTTTTTCTGCTCTATCAACGGAGTCACCTAGTGCAG”, which binding signal is on record?
**A.** Its binding signal is 9190 fluorescence intensity (a.u.).

**Q.** Which binding signal does the source give for “ACTAATTGCACTGCTCCCACACCTTAATCGATCTTAATTACGGAGTCACCTAGTGCAG” here?
**A.** The binding signal was 9300 fluorescence intensity (a.u.).

**Q.** “GGTTGAGGGTGTGGGAGCTCCTCTCATTTTGTTTATGAATCGGAGTCACCTAGTGCAG” was tested. Which binding signal did it give?
**A.** The binding signal was 10100 fluorescence intensity (a.u.).

**Q.** How did the binding signal turn out when “CGTCAGCTCCGGCTACCGTGGTCAATGTGCACAATATTTCCGGAGTCACCTAGTGCAG” was run?
**A.** Its binding signal is 9920 fluorescence intensity (a.u.).

**Q.** “GCAGGTTAGGTCGCGGCAGGTGGTGGTGGTAGGAAGAAGACGGAGTCACCTAGTGCAG” was tested. Which binding signal did it give?
**A.** Its binding signal is 8360 fluorescence intensity (a.u.).

**Q.** Which binding signal does the source give for “TTATTCATTTTCTTTATATTGTTATTTTCCTTTTTGTGTTCGGAGTCACCTAGTGCAG” here?
**A.** Its binding signal is 8050 fluorescence intensity (a.u.).

**Q.** How did the binding signal turn out when “TTTGTTCCAAATTGTAGACTTGTTTTGCGCTTCGTTTTGTCGGAGTCACCTAGTGCAG” was run?
**A.** Its binding signal is 10100 fluorescence intensity (a.u.).

**Q.** Which binding signal does the source give for “GCAGTAGAATAAAATTTTCACCTCTGGTTTTTATAATCCACGGAGTCACCTAGTGCAG” here?
**A.** Its binding signal is 8720 fluorescence intensity (a.u.).

**Q.** Which binding signal does the source give for “GGGTCTTTTGGGTTGGAGTGGAGCTGTGGAGCAACAAAAACGGAGTCACCTAGTGCAG” here?
**A.** The binding signal was 10200 fluorescence intensity (a.u.).

**Q.** For “TTCCCATACGCGTCCCACCCGCCGCCGCCCTCGTCTCCGCCGGAGTCACCTAGTGCAG”, which binding signal is on record?
**A.** The binding signal was 8800 fluorescence intensity (a.u.).

**Q.** With “ACTTGAGAGACACATTGTATTTCCATTGGTATATTGTCTCCGGAGTCACCTAGTGCAG” as the sequence, how does the binding signal read?
**A.** Its binding signal is 8610 fluorescence intensity (a.u.).

**Q.** For “GGTCTGCCTATAAATACCAGCCATTTCCTCATCGTTCCTCCGGAGTCACCTAGTGCAG”, which binding signal is on record?
**A.** Its binding signal is 8060 fluorescence intensity (a.u.).

**Q.** With “TCCACATCATTTCCACGGCCCCTATTGTCCGCTTGCTCTCCGGAGTCACCTAGTGCAG” as the sequence, how does the binding signal read?
**A.** Its binding signal is 9110 fluorescence intensity (a.u.).

**Q.** With “ACCTCGCGTCGCTCGCGGCGCCTTCCCGCGCCGCCCACCCCGGAGTCACCTAGTGCAG” as the sequence, how does the binding signal read?
**A.** The binding signal was 10100 fluorescence intensity (a.u.).

**Q.** With “AATTACTACTCCTAGGTTAATTCATTTTTTCTTTTTCTAACGGAGTCACCTAGTGCAG” as the sequence, how does the binding signal read?
**A.** The binding signal was 8630 fluorescence intensity (a.u.).

**Q.** With “CTTATATGGGTAGGGCGTGCGCGCGTGTGATTATAGGGGTCGGAGTCACCTAGTGCAG” as the sequence, how does the binding signal read?
**A.** The binding signal was 8620 fluorescence intensity (a.u.).
